# These are yes or no findings as the source states them, for the method shown. Binding can be weak; no strength is given.
# Target: ComRSth-StreptagII protein (Streptococcus thermophilus ComR) (Streptococcus thermophilus)
# Assay: fluorescence polarisation; competition: 250 nM ComR and 30 nM FITC N-labeled XIP-A5M with twofold serial dilutions of unlabeled XIP variant from 5 uM; IC50; both purified
binder,measurement,value
"LPYFAGCL [XIPSth (Streptococcus thermophilus XIP, synthetic octapeptide)]",binding,binds

# Reference: PMC8605241, “Coevolution of the bacterial pheromone ComS and sensor ComR fine-tunes natural transformation in streptococci” (The Journal of Biological Chemistry, 2021)
